Data reported in US20260049141A1.
These are yes or no findings as the source states them, for the method shown. Some results given as binding are weak or reduced against the parent protein; the word gives no strength. Tags and fused reporters may be left off the sequences shown.

Chains of the proteins cited; added tags and fusions are not shown. Lines headed by an entry give the natural chain unless they say otherwise; changes in a name come on top. Residues count along the entry.
UniProt P10747, residues 19-152: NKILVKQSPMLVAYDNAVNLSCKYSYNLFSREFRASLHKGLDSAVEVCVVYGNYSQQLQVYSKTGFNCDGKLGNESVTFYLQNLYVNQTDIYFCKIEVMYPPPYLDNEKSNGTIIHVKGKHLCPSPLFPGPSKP
UniProt Q15116, residues 25-167: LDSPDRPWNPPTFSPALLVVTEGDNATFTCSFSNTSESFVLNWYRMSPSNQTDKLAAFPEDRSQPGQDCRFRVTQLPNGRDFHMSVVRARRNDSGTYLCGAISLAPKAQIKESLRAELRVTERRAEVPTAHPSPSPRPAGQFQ

Assays:
[1] = molecular target: Recombinant human CD28 (bio-techne, reference 342-CD-200) (human) (UniProt P10747); assay: MSD binding assay, recombinant human CD28 immobilized (FIG. 6C)
[2] = molecular target: Recombinant human CD28 (bio-techne, reference 342-CD-200) (human) (UniProt P10747); assay: MSD: biotinylated recombinant human CD28 immobilized on streptavidin coated plate, detection with anti-human Fc antibody coupled to SulfoTag
[3] = molecular target: Recombinant human PD-1 (Sino Biologicals, reference 10377-H08H) (human) (UniProt Q15116); assay: ELISA: recombinant human PD-1 immobilized, anti-human Fc-peroxidase, TMB, 450 nm; normalized to anti-PD-1*1 at 20 nM = 100%; N=2 [panel 'Monovalent Anti PD-1']
[4] = molecular target: Biotinylated human PD-1 (AcroBiosystems, reference EP-101) (human) (UniProt Q15116); assay: competitive ELISA: recombinant human PD-L1 immobilized, antibody mixed with a fixed concentration of biotinylated human PD-1, streptavidin-peroxidase; % = 100-((DO450*100)/DO450 no Ab); N=2; blocked ligand PD-L1
[5] = molecular target: Recombinant human PD-1 (Sino Biologicals, reference 10377-H08H) (human) (UniProt Q15116); assay: ELISA, recombinant human PD-1 coated (FIG. 6A)
[6] = molecular target: Recombinant human PD-1 (Sino Biologicals, reference 10377-H08H) (human) (UniProt Q15116); assay: ELISA: recombinant human PD-1 immobilized, anti-human Fc-peroxidase, TMB, 450 nm; normalized to anti-PD-1*2 at 20 nM = 100%; N=2 [panel 'Bivalent Anti PD-1']

| binding [1] | binding [2] | binding [3] | binding [4] | binding [5] | binding [6] | Binder |
| --- | --- | --- | --- | --- | --- | --- |
| binds | binds | binds | binds | binds |  | anti-PD-1/anti-CD28 multifunctional molecule Format A1 (monovalent anti-PD-1 Fab fused to a monovalent anti-CD28 Fab CrossMAb, clone 1) (bispecific antibody, V domains shown) VH 1: QIQLVQSGSELKKPGASVKVSCKASGYTFTHYAMNWVRQAPGQGLEWMGWINTNTGEPTYAQGFTGRFVFSLDTSVSTAYLQISSLKAEDTAVYYCAREREPGMDNWGQGTLVTVSS VL 1: DVVMTQSPLSLPVTLGQPASISCRSSQSLVHANTNTYLEWYQQRPGQSPRLLIYKVSNRFSGVPDRFSGSGSGTDFTLKISRVEAEDVGVYYCFQGTHVPNTFGQGTKLEIK VH 2: QVKLQESGPGLVAPSQSLSITCTVSGFSLTSYGVYWVRQPPGKGLEWLGVIWAGGSTNYNSALMSRLSISKDNSKSQVFLKMNSLQTDDTAMYYCARDHYGSYGDYYAMDYWGQGTTVTVSS VL 2: DIVLTQSPASLAVSLGQRATISCRASESVEYYDTSLMQWYQQKPGQPPKLLIYAASSVESGVPARFSGSGSGTDFSLNIHPVEEDDIAMYFCQQSRKVPWTFGGGTKLEIK |
|  |  |  | binds |  |  | anti-PD-1/anti-CD28 multifunctional molecule Format B3 (scFv anti-CD28 fused to C-terminal of monovalent anti-PD1, clone 1) (bispecific antibody, V domains shown) VH 1: QIQLVQSGSELKKPGASVKVSCKASGYTFTHYAMNWVRQAPGQGLEWMGWINTNTGEPTYAQGFTGRFVFSLDTSVSTAYLQISSLKAEDTAVYYCAREREPGMDNWGQGTLVTVSS VL 1: DVVMTQSPLSLPVTLGQPASISCRSSQSLVHANTNTYLEWYQQRPGQSPRLLIYKVSNRFSGVPDRFSGSGSGTDFTLKISRVEAEDVGVYYCFQGTHVPNTFGQGTKLEIK VH 2: QVKLQESGPGLVAPSQSLSITCTVSGFSLTSYGVYWVRQPPGKGLEWLGVIWAGGSTNYNSALMSRLSISKDNSKSQVFLKMNSLQTDDTAMYYCARDHYGSYGDYYAMDYWGQGTTVTVSS VL 2: DIVLTQSPASLAVSLGQRATISCRASESVEYYDTSLMQWYQQKPGQPPKLLIYAASSVESGVPARFSGSGSGTDFSLNIHPVEEDDIAMYFCQQSRKVPWTFGGGTKLEIK |
|  |  |  | binds | binds | binds | anti-PD-1/anti-CD28 multifunctional molecule Format C2 (bivalent anti-PD-1 antibody fused to an anti-CD28 scFv, clone 1) (bispecific antibody, V domains shown) VH 1: QIQLVQSGSELKKPGASVKVSCKASGYTFTHYAMNWVRQAPGQGLEWMGWINTNTGEPTYAQGFTGRFVFSLDTSVSTAYLQISSLKAEDTAVYYCAREREPGMDNWGQGTLVTVSS VL 1: DVVMTQSPLSLPVTLGQPASISCRSSQSLVHANTNTYLEWYQQRPGQSPRLLIYKVSNRFSGVPDRFSGSGSGTDFTLKISRVEAEDVGVYYCFQGTHVPNTFGQGTKLEIK VH 2: QVKLQESGPGLVAPSQSLSITCTVSGFSLTSYGVYWVRQPPGKGLEWLGVIWAGGSTNYNSALMSRLSISKDNSKSQVFLKMNSLQTDDTAMYYCARDHYGSYGDYYAMDYWGQGTTVTVSS VL 2: DIVLTQSPASLAVSLGQRATISCRASESVEYYDTSLMQWYQQKPGQPPKLLIYAASSVESGVPARFSGSGSGTDFSLNIHPVEEDDIAMYFCQQSRKVPWTFGGGTKLEIK |
|  |  |  | binds |  |  | anti-PD-1/anti-CD28 multifunctional molecule Format C5 (scFv anti-CD28 fused to C-terminal of bivalent anti-PD1, clone 1) (bispecific antibody, V domains shown) VH 1: QIQLVQSGSELKKPGASVKVSCKASGYTFTHYAMNWVRQAPGQGLEWMGWINTNTGEPTYAQGFTGRFVFSLDTSVSTAYLQISSLKAEDTAVYYCAREREPGMDNWGQGTLVTVSS VL 1: DVVMTQSPLSLPVTLGQPASISCRSSQSLVHANTNTYLEWYQQRPGQSPRLLIYKVSNRFSGVPDRFSGSGSGTDFTLKISRVEAEDVGVYYCFQGTHVPNTFGQGTKLEIK VH 2: QVKLQESGPGLVAPSQSLSITCTVSGFSLTSYGVYWVRQPPGKGLEWLGVIWAGGSTNYNSALMSRLSISKDNSKSQVFLKMNSLQTDDTAMYYCARDHYGSYGDYYAMDYWGQGTTVTVSS VL 2: DIVLTQSPASLAVSLGQRATISCRASESVEYYDTSLMQWYQQKPGQPPKLLIYAASSVESGVPARFSGSGSGTDFSLNIHPVEEDDIAMYFCQQSRKVPWTFGGGTKLEIK |
|  |  |  | binds | binds | binds | anti-PD-1/anti-CD28 multifunctional molecule Format C1 (bivalent anti-PD-1 antibody fused to an anti-CD28 scFv, clone 1) (bispecific antibody, V domains shown) VH 1: QIQLVQSGSELKKPGASVKVSCKASGYTFTHYAMNWVRQAPGQGLEWMGWINTNTGEPTYAQGFTGRFVFSLDTSVSTAYLQISSLKAEDTAVYYCAREREPGMDNWGQGTLVTVSS VL 1: DVVMTQSPLSLPVTLGQPASISCRSSQSLVHANTNTYLEWYQQRPGQSPRLLIYKVSNRFSGVPDRFSGSGSGTDFTLKISRVEAEDVGVYYCFQGTHVPNTFGQGTKLEIK VH 2: QVKLQESGPGLVAPSQSLSITCTVSGFSLTSYGVYWVRQPPGKGLEWLGVIWAGGSTNYNSALMSRLSISKDNSKSQVFLKMNSLQTDDTAMYYCARDHYGSYGDYYAMDYWGQGTTVTVSS VL 2: DIVLTQSPASLAVSLGQRATISCRASESVEYYDTSLMQWYQQKPGQPPKLLIYAASSVESGVPARFSGSGSGTDFSLNIHPVEEDDIAMYFCQQSRKVPWTFGGGTKLEIK |
